The test system of one series is complement C3b (human). The experiment in a line: EMSA. The note with it: 2'-fluoro pyrimidines; 20 mM HEPES pH 7.4, 150 mM NaCl, 10 mM MgCl2, BSA and yeast RNA 1 ug/20 uL each, 45 min at 37 C; native protein; label: 32P. A general note: A gel shift assay detects complexes by their altered migration in electrophoresis.
Another series deals with complement iC3b (human). The experiment in a line: EMSA. The following applies: 20 mM HEPES pH 7.4, 150 mM NaCl, 10 mM MgCl2, BSA and yeast RNA 1 ug/20 uL each, 45 min at 37 C, native protein.
Another series addresses EGFR on MDA-MB-231 cells (UniProt P00533). The experiment in a line: cell-surface fluorescence microscopy. The following applies: 2.64 uM RNA, PBS with MgCl2, 25 C; 2'-fluoro pyrimidines (RNA strand); 20 mM HEPES pH 7.4, 150 mM NaCl, 10 mM MgCl2, BSA and yeast RNA 1 ug/20 uL each, 45 min at 37 C; protein on the cell surface; label: 5' biotin on DNA, SA-PE.
In another series the test system is complement C3 (human). The experiment in a line: EMSA. The following applies: 2'-fluoro pyrimidines, 20 mM HEPES pH 7.4, 150 mM NaCl, 10 mM MgCl2, BSA and yeast RNA 1 ug/20 uL each, native protein, label: 32P.

Chains of the proteins cited; added tags and fusions are not shown. A line that says so, or that is headed by a name, gives the form on record, which may keep a tag or linker.
complement C3b (human), one chain, as listed by the source, chain 1 of 2: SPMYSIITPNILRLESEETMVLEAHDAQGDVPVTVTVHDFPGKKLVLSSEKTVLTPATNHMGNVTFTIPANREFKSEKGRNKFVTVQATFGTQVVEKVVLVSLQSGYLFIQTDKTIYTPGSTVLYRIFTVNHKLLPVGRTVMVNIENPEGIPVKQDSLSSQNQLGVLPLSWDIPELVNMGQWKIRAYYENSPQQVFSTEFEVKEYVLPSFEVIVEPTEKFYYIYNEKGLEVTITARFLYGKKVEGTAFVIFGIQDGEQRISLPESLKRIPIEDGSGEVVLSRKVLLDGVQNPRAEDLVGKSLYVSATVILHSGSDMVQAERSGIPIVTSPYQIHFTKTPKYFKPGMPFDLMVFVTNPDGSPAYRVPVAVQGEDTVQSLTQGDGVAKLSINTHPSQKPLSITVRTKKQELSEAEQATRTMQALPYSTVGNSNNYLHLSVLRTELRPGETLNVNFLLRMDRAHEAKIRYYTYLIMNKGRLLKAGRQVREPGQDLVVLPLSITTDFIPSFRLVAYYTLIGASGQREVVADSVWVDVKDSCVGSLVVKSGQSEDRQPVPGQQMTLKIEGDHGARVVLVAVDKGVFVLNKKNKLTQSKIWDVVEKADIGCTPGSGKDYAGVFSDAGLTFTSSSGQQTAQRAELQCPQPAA
complement C3b (human), one chain, as listed by the source, chain 2 of 2: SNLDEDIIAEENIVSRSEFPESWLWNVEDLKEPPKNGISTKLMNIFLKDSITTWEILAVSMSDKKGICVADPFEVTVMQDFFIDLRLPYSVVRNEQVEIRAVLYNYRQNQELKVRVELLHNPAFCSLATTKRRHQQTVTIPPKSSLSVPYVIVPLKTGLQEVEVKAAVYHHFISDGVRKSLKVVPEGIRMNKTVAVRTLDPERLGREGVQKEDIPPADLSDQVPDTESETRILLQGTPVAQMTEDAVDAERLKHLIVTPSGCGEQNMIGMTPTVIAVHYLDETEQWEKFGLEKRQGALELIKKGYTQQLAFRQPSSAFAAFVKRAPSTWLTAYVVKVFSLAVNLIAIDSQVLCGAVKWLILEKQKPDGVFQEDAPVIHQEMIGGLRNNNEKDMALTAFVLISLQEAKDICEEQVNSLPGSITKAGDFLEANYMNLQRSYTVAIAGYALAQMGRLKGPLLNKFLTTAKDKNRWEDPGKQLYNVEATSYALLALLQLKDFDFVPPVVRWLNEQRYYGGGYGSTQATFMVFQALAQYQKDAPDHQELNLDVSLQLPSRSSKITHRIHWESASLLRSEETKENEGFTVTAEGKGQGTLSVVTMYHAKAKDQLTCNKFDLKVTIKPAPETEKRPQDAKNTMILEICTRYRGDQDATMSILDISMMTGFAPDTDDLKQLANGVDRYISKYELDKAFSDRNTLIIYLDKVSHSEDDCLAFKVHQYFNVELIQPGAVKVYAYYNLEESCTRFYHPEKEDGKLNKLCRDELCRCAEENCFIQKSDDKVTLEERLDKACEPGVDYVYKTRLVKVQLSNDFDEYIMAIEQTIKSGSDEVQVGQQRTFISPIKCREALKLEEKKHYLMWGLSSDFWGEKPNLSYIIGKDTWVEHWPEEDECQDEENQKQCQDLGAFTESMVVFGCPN
complement iC3b (human), one chain, as listed by the source, chain 2 of 3: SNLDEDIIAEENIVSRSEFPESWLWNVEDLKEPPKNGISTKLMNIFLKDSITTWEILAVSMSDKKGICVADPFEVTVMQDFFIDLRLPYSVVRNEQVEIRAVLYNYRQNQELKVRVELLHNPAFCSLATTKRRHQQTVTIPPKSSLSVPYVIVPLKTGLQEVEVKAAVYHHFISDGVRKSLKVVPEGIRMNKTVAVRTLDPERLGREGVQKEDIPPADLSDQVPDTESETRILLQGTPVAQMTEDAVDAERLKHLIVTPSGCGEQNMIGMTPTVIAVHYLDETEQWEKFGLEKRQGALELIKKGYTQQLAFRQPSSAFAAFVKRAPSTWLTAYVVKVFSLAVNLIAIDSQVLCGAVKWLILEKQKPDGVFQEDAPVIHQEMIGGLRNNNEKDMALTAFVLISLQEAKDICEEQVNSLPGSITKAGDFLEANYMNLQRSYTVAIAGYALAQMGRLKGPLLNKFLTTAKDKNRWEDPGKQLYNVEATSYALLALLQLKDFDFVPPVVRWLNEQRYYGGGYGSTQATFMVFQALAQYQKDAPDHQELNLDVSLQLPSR
complement C3 (human), one chain, as listed by the source, chain 2 of 2: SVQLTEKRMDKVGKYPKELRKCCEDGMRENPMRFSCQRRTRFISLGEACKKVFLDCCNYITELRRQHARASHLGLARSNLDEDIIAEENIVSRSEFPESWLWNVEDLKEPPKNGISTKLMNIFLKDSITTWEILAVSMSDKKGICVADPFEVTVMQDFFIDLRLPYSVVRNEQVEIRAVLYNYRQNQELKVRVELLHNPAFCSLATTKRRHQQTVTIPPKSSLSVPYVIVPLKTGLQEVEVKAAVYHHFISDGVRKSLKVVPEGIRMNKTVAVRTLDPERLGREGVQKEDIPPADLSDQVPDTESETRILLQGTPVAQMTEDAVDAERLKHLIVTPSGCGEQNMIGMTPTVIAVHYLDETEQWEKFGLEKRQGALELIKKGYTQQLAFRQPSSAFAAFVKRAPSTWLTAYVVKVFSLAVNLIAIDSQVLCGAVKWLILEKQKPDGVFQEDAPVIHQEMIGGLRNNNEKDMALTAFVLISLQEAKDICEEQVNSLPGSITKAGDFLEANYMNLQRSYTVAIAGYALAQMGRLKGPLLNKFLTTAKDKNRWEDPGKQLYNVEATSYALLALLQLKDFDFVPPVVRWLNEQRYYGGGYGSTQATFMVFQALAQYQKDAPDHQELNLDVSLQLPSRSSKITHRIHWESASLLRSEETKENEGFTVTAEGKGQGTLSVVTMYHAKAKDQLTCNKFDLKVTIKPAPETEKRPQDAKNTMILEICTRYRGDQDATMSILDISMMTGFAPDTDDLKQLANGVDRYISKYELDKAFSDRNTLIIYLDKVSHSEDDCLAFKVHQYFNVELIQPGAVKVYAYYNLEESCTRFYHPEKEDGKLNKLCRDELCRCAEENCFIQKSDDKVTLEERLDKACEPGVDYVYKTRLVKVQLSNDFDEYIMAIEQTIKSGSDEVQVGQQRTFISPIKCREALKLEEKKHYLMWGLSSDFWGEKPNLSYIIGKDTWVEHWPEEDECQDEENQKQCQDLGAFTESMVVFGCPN
complement iC3b (human), one chain, as listed by the source, chain 3 of 3: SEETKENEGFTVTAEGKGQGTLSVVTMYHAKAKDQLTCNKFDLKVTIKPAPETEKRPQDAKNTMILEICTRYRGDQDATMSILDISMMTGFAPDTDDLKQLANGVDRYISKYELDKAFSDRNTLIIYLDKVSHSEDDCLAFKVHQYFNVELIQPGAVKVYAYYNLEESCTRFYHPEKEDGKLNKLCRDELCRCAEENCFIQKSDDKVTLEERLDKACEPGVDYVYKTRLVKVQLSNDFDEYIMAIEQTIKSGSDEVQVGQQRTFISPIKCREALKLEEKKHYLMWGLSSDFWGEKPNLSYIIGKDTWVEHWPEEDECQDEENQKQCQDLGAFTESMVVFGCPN

Construct, isoform or probe ends are uncertain for at least one entry. For some of these results: A weaker result is weaker than the reference pair of the same experiment. For some of these results: At least one verdict rests on a figure or table, not on a statement of the authors. For some of these results: Results from cells or extracts need not show a direct contact.

On to “GGGAGAAUUCAACUGCCAUCUACAGCCCCUCGGCCGCGUUCAGCGUCUAACCUUGGGCUGUAUAGAAAGGGUUUCCAGACUACAAGCUUCUGGACUCGGU [AptC3-III]”, for which the binding result in the series with complement C3b (human) was “binds”.
For “GGGACGGAUUUAAUCGCCGUAGAAAAGCAUGUCAAAGCCGGAACCGUCCCUUGCCAUGUGUAUGUGGG / GGGCCCCUCGGCCGCGUUCAGCGUCUAACCUUGGGCCCGGAUCAAUCAUGGCAA / CCCACAUACUUUGUUGAUCC [Trifecta-t (Ft1/Ft2/Ft3)]”, the binding result in the series with complement iC3b (human) (single occupancy, 2'-fluoro pyrimidines in Ft1, Ft2, Ft3 is DNA with U instead of T, label: 32P on strand with C3 aptamer) is “binds”.
For the sequence “GGGACGGAUUUAAUCGCCGUAGAAAAGCAUGUCAAAGCCGGAACCGUCCCGAAUUAAAUGCCCGCCAUGACCAG / CTGGTCATGGCGGGCATTTAATTC [E07s-e annealed to biotin DNA oligo]”, the binding result in the series with EGFR on MDA-MB-231 cells is “binds”.
In the case of “GGGAGAAUUCAACUGCCAUCUAGCUUGACCAAUAAGACGUAUUGGCCUCCUACGCAUGGCAAGCAGUUCUCUCUACUGAACUACAAGCUUCUGGACUCGGU [AptC3-II]”, in the series with complement C3 (human) (Kd of the six aptamers in range 10-60 nM, competes with AptC3-III, 45 min at 37 C), the binding result is given as “binds”.
On to “GGGAGAAUUCAACUGCCAUCUAGCUACAAAAAUACGAGGAAAGCAAAGUACCAGUGUAGCUACCAAAAGGAGUAGUAAAACACUACAAGCUUCUGGACAUCGGU [AptC3-I]”, for which, in the series with complement C3 (human) (Kd of the six aptamers in range 10-60 nM, 45 min at …), the binding result was “binds”.
Consider “GGGACGGAUUUAAUCGCCGUAGAAAAGCAUGUCAAAGCCGGAACCGUCCCUUGCCAUGUGUAUGUGGGCCC / GGGCCCACAUACUUUGUUGAUCCGGGCCCCUCGGCCGCGUUCAGCGUCUAACCUUGGGCCCGGAUCAAUCAUGGCAA [Trifecta-b (Fb1/Fb2)]”, for which the binding result with complement iC3b (human) (single occupancy, 2'-fluoro pyrimidines, label: 32P on strand with C3 aptamer) is recorded as “binds”.
For “GGGAGAAUUCAACUGCCAUCUAGUUGCAAAAACAUGAGGAUAGCAAAGUACCAGUGCAACUAACAAGGAAAAGAAGACGGACUACAAGCUUCUGGACUCGGU [AptC3-IV]”, in the series on complement C3 (human) (250 nM protein, 45 min at 37 C), the binding result is “binds more weakly”.
Turning to “GGGAGAAUUCAACUGCCAUCUAGCUACGUGGAACCUAAGGUUAAACCGUAUGAUGCAGUUGUACACUCCAAACGAAGAACUACAAGCUUCUGGACUCGGU [AptC3-V]”, the binding result in the series with complement iC3b (human) (selected on iC3b, 2'-fluoro pyrimidines, label: 32P) is reported as “binds”.
For “GGGAGAAUUCAACUGCCAUCUAACCACGUAGUAAUACGGUAUGAUCCAGUUUUAAUUCUAACCAGACUGUUCAGAUGACUACAAGCUUCUGGACUCGGU [AptC3-VI]”, the binding result was “binds more weakly” with complement iC3b (human) (250 nM protein, 2'-fluoro pyrimidines, label: 32P) and “binds more weakly” with complement C3 (human) (250 nM protein, 45 min at 37 C).

The values are drawn from PMC8775132.
